How the values were obtained:
[1] = Global Warming Potential (GWP) calculated by IPCC AR5 methods from FTIR radiative efficiency and atmospheric lifetime; conditions: 100 yr integration time horizon; calculated from measured radiative efficiency and atmospheric lifetime
[2] = Atmospheric lifetime from relative rate studies with hydroxyl radicals, chloromethane as reference; conditions: reaction with hydroxyl radicals relative to CH3Cl, FTIR

Structure (SMILES)	GWP (100 yrs) [1]	Atmospheric Lifetime [2] [yrs]
FC(F)(F)C(=C(Oc1cc(C(F)(F)F)cc(C(F)(F)F)c1)C(F)(F)C(F)(F)F)C(F)(F)F [Example 6, 1-((1,1,1,4,4,5,5,5-Octafluoro-2-(trifluoromethyl)pent-2-en-3-yl)oxy)-3,5-bis(trifluoromethyl)benzene]	49	0.74
F/C(=C(/C(F)(F)F)C(F)(Oc1ccccc1)C(F)(F)C(F)(F)F)C(F)(C(F)(F)F)C(F)(F)F (stereo not drawn) [Example 4, (E)-((1,1,1,2,2,3,5,6,7,7,7-Undecafluoro-4,6-bis(trifluoromethyl)hept-4-en-3-yl)oxy)benzene+isomers]	4	0.16

Source: patent publication US12414267B2, “Fluorinated aromatics and methods of using same” (3M INNOVATIVE PROPERTIES COMPANY, priority 2019, dated 2025)
